# Drug screen on melanoma cell lines: apoptosis marker

From a melanoma drug combination screen (doi:10.1371/journal.pone.0140310); values rounded.

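Human melanoma cell lines in 1,536-well plates were treated with two drugs together for 72 h, then fixed, stained and imaged. Each value is the cleaved-PARP-positive fraction of nuclei relative to DMSO-treated wells, in %, so that 100 equals the control and higher values mean more apoptosis. Concentrations were fixed for each drug; these are the higher of two levels. These are primary screening values without error estimates. Basal and induced levels differ widely between cell lines.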 Only some of the drugs and lines screened are listed, without regard to their results. An entry leaves out what has no value listed here.

Drugs:
tozasertib: Cc1cc(Nc2cc(N3CCN(C)CC3)nc(Sc3ccc(NC(=O)C4CC4)cc3)n2)n[nH]1 at 0.03 µM
AS-252424: O=C1NC(=O)/C(=C/c2ccc(-c3ccc(F)cc3O)o2)S1 at 5 µM
ENMD-2076: Cc1cc(Nc2cc(N3CCN(C)CC3)nc(/C=C/c3ccccc3)n2)n[nH]1 at 0.2 µM
LFM-A13: C/C(O)=C(\C#N)C(=O)Nc1cc(Br)ccc1Br at 10 µM
T0901317: O=S(=O)(c1ccccc1)N(CC(F)(F)F)c1ccc(C(O)(C(F)(F)F)C(F)(F)F)cc1 at 7 µM
pioglitazone: CCc1ccc(CCOc2ccc(CC3SC(=O)NC3=O)cc2)nc1 (stereo not given) at 10 µM
crizotinib: C[C@@H](Oc1cc(-c2cnn(C3CCNCC3)c2)cnc1N)c1c(Cl)ccc(F)c1Cl at 1 µM
OSI-906: C[C@]1(O)C[C@@H](c2nc(-c3ccc4ccc(-c5ccccc5)nc4c3)c3c(N)nccn32)C1 at 2 µM
sorafenib: CNC(=O)c1cc(Oc2ccc(NC(=O)Nc3ccc(Cl)c(C(F)(F)F)c3)cc2)ccn1 at 2 µM
lenalidomide: Nc1cccc2c1CN(C1CCC(=O)NC1=O)C2=O (stereo not given) at 5 µM
erlotinib: C#Cc1cccc(Nc2ncnc3cc(OCCOC)c(OCCOC)cc23)c1 at 4 µM
SNS-314: O=C(Nc1cccc(Cl)c1)Nc1ncc(CCNc2ncnc3ccsc23)s1 at 0.004 µM

{"drugs": "pioglitazone + OSI-906", "WM451Lu": 264, "WM1716": 77.9, "501mel": 257, "SK-MEL-2": 204}
{"drugs": "T0901317 + lenalidomide", "WM451Lu": 115, "WM1716": 47.9, "501mel": 165, "SK-MEL-2": 159}
{"drugs": "tozasertib + sorafenib", "WM451Lu": 191, "WM1716": 95.9, "SK-MEL-2": 101}
{"drugs": "erlotinib + AS-252424", "WM451Lu": 33.1, "WM1716": 133, "501mel": 268, "SK-MEL-2": 132}
{"drugs": "lenalidomide + crizotinib", "WM451Lu": 74.7, "WM1716": 89.8, "SK-MEL-2": 158}
{"drugs": "ENMD-2076 + pioglitazone", "WM451Lu": 195, "WM1716": 110, "501mel": 209, "SK-MEL-2": 179}
{"drugs": "pioglitazone + T0901317", "WM451Lu": 291, "WM1716": 3120, "501mel": 312, "SK-MEL-2": 141}
{"drugs": "LFM-A13 + lenalidomide", "WM451Lu": 56.7, "WM1716": 221, "501mel": 128, "SK-MEL-2": 116}
{"drugs": "SNS-314 + sorafenib", "WM451Lu": 107, "WM1716": 41.9, "SK-MEL-2": 324}
{"drugs": "crizotinib + erlotinib", "WM451Lu": 174, "WM1716": 109, "SK-MEL-2": 19.1}
{"drugs": "LFM-A13 + AS-252424", "WM451Lu": 89.3, "WM1716": 15.5, "501mel": 86.4, "SK-MEL-2": 75.2}
{"drugs": "pioglitazone + tozasertib", "WM451Lu": 159, "WM1716": 51.4, "501mel": 75.8, "SK-MEL-2": 210}
{"drugs": "ENMD-2076 + SNS-314", "WM451Lu": 177, "WM1716": 266, "SK-MEL-2": 257}
{"drugs": "ENMD-2076 + T0901317", "WM451Lu": 37.8, "WM1716": 99.9, "501mel": 331, "SK-MEL-2": 56.5}
{"drugs": "AS-252424 + sorafenib", "WM451Lu": 55.1, "WM1716": 83.9, "501mel": 140, "SK-MEL-2": 82.0}
{"drugs": "OSI-906 + LFM-A13", "WM451Lu": 200, "WM1716": 102, "501mel": 181, "SK-MEL-2": 87.3}
{"drugs": "sorafenib + ENMD-2076", "WM451Lu": 94.2, "WM1716": 35.7, "SK-MEL-2": 261}
{"drugs": "crizotinib + sorafenib", "WM451Lu": 97.9, "WM1716": 116, "SK-MEL-2": 82.4}
{"drugs": "lenalidomide + SNS-314", "WM451Lu": 273, "WM1716": 27.2, "SK-MEL-2": 175}
{"drugs": "LFM-A13 + SNS-314", "WM451Lu": 396, "WM1716": 140, "501mel": 168, "SK-MEL-2": 64.4}
{"drugs": "LFM-A13 + erlotinib", "WM451Lu": 43.0, "WM1716": 106, "501mel": 60.1, "SK-MEL-2": 94.8}
{"drugs": "crizotinib + AS-252424", "WM451Lu": 231, "WM1716": 85.5, "501mel": 55.3, "SK-MEL-2": 90.4}
{"drugs": "AS-252424 + tozasertib", "WM451Lu": 162, "WM1716": 144, "501mel": 138, "SK-MEL-2": 94.0}
{"drugs": "AS-252424 + lenalidomide", "WM451Lu": 90.4, "WM1716": 155, "501mel": 257, "SK-MEL-2": 64.3}
{"drugs": "LFM-A13 + ENMD-2076", "WM451Lu": 110, "WM1716": 122, "501mel": 114, "SK-MEL-2": 82.3}
{"drugs": "SNS-314 + OSI-906", "WM451Lu": 192, "WM1716": 199, "SK-MEL-2": 130}
{"drugs": "SNS-314 + erlotinib", "WM451Lu": 196, "WM1716": 176, "SK-MEL-2": 139}
{"drugs": "OSI-906 + sorafenib", "WM451Lu": 87.9, "WM1716": 46.9, "SK-MEL-2": 60.3}
{"drugs": "ENMD-2076 + OSI-906", "WM451Lu": 181, "WM1716": 127, "SK-MEL-2": 123}
{"drugs": "pioglitazone + lenalidomide", "WM451Lu": 91.3, "WM1716": 166, "501mel": 136, "SK-MEL-2": 158}
{"drugs": "crizotinib + SNS-314", "WM451Lu": 315, "WM1716": 149, "SK-MEL-2": 179}
{"drugs": "T0901317 + tozasertib", "WM451Lu": 251, "WM1716": 150, "501mel": 284, "SK-MEL-2": 134}
{"drugs": "SNS-314 + T0901317", "WM451Lu": 381, "WM1716": 98.2, "501mel": 273, "SK-MEL-2": 245}
{"drugs": "sorafenib + T0901317", "WM451Lu": 183, "WM1716": 10.0, "501mel": 189, "SK-MEL-2": 118}
{"drugs": "sorafenib + lenalidomide", "WM451Lu": 104, "WM1716": 77.4, "SK-MEL-2": 147}

Once more, the final 4:

- T0901317 + tozasertib | WM451Lu: 251; WM1716: 150; 501mel: 284; SK-MEL-2: 134
- SNS-314 + T0901317 | WM451Lu: 381; WM1716: 98.2; 501mel: 273; SK-MEL-2: 245
- sorafenib + T0901317 | WM451Lu: 183; WM1716: 10.0; 501mel: 189; SK-MEL-2: 118
- sorafenib + lenalidomide | WM451Lu: 104; WM1716: 77.4; SK-MEL-2: 147